Results deposited as PubChem BioAssay AID686938 (Drosophila RNAi Screening Center, 2013)

Aim: 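Fly genes required for calcium entry once internal stores are emptied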 (primary screen)
Cells: Drosophila S2R+ cells
Reagents: long dsRNA against Drosophila genes, about 0.25 µg dsRNA per well, roughly 10,000 cells
Timing: 5 days of knock-down before the calcium assay
Challenge: thapsigargin (SERCA pump blocker) to empty calcium stores; entry signal taken 4 min after adding it
Measured: 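Per-well fluo-4 fluorescence in two replicates, unnormalised, measured in resting cells and 4 min after store depletion by the SERCA blocker thapsigargin; ratio of the two present in few wells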
Direction: calcium entry signal: higher = stronger calcium signal after store depletion; entry to resting ratio: higher = more calcium entry relative to resting level; resting calcium signal: higher = higher resting calcium signal
Call rule: 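Called when the plate z-score of the entry-to-rest ratio, mean of duplicates, falls below −3; wells with low overall dye signal (Fmax z below −2) or more than five off-targets excluded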
Meaning of the calls: active = strongly reduced calcium entry; inactive = no strong reduction
The deposit covers about 23,000 reagents; below is a random part of those that have a named target and a result. Of all reagents, 75 (0.33%) are marked active. 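Raw plate signals without normalisation; calls rest on plate z-scores that were not deposited; ratio present for only 364 wells.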 Names joined by + are all predicted targets of the reagent. No sequences are given here. Not stated in the record: the dose of the treatment.

| Target gene | DRSC id | calcium entry signal, replicate 1 (fluorescence units) | calcium entry signal, replicate 2 (fluorescence units) | entry to resting ratio | resting calcium signal, replicate 1 (fluorescence units) | resting calcium signal, replicate 2 (fluorescence units) | call |
| --- | --- | --- | --- | --- | --- | --- | --- |
| CG11307 | DRSC11648 | 2.24e7 | 3.31e7 | – | 1.07e7 | 1.50e7 | inactive |
| sNPF | DRSC02309 | 3.80e7 | 3.80e7 | – | 1.78e7 | 1.75e7 | inactive |
| CG5773 | DRSC06955 | 4.27e7 | 4.64e7 | – | 1.90e7 | 2.22e7 | inactive |
| pita | DRSC04006 | 1.90e7 | 3.46e7 | – | 1.06e7 | 1.43e7 | inactive |
| pita | DRSC04435 | 4.30e7 | – | – | 2.12e7 | – | inactive |
| CG33093 | DRSC15775 | 3.69e7 | 2.39e7 | – | 1.70e7 | 1.23e7 | inactive |
| Obp50d | DRSC05483 | 5.89e7 | 4.62e7 | – | 3.01e7 | 2.02e7 | inactive |
| tsg | DRSC20380 | 3.85e7 | 5.64e7 | – | 1.82e7 | 2.54e7 | inactive |
| CG30203 | DRSC06690 | 2.84e7 | 3.35e7 | – | 1.59e7 | 1.59e7 | inactive |
| Art2 | DRSC00627 | 2.36e7 | 2.22e7 | – | 1.20e7 | 1.05e7 | inactive |
| CG8001 | DRSC08611 | 4.13e7 | 3.89e7 | – | 1.93e7 | 1.89e7 | inactive |
| alpha-Man-IIb | DRSC16898 | 2.61e7 | 2.63e7 | – | 1.28e7 | 1.14e7 | inactive |
| CG14329 | DRSC14808 | 2.85e7 | 5.34e7 | – | 1.70e7 | 7.04e7 | inactive |
| snRNP-U1-70K | DRSC03612 | 3.24e7 | 5.78e7 | – | 1.54e7 | 2.35e7 | inactive |
| snRNP-U1-70K | DRSC22071 | 2.16e7 | 3.94e7 | – | 1.38e7 | 2.23e7 | inactive |
| Mos | DRSC07258 | 3.32e7 | 4.46e7 | – | 1.78e7 | 2.03e7 | inactive |
| St2 | DRSC15142 | 4.68e7 | 3.51e7 | – | 2.13e7 | 1.73e7 | inactive |
| St2 | DRSC22624 | 4.40e7 | 3.79e7 | – | 2.11e7 | 1.58e7 | inactive |
| sll | DRSC16271 | 3.78e7 | 3.93e7 | – | 1.69e7 | 1.69e7 | inactive |
| CG8042 | DRSC09676 | 4.54e7 | 3.70e7 | – | 3.17e7 | 1.57e7 | inactive |
| CG12290 | DRSC14497 | 2.94e7 | 3.67e7 | – | 1.37e7 | 1.79e7 | inactive |
| CG12983 | DRSC11692 | 3.23e7 | 5.65e7 | – | 1.65e7 | 2.22e7 | inactive |
| CG30098 | DRSC05605 | 1.61e7 | 4.08e7 | – | 8.13e6 | 2.52e7 | inactive |
| CG34393 | DRSC00419 | 2.46e7 | 2.34e7 | – | 1.19e7 | 1.19e7 | inactive |
| CG34393 | DRSC00710 | 2.21e7 | 2.40e7 | – | 1.06e7 | 1.09e7 | inactive |
| Sobp | DRSC07312 | 3.01e7 | 2.94e7 | – | 1.33e7 | 1.40e7 | inactive |
| BomS5 | DRSC22306 | 2.84e7 | 4.59e7 | – | 1.47e7 | 2.18e7 | inactive |
| elgi | DRSC10242 | 3.85e7 | 4.78e7 | – | 1.79e7 | 3.21e7 | inactive |
| CG13056 | DRSC09937 | 4.17e7 | 6.26e7 | – | 2.13e7 | 2.70e7 | inactive |
| CG31871 | DRSC02567 | 3.21e7 | 4.54e7 | – | 1.81e7 | 1.93e7 | inactive |
| CG31871 | DRSC02571 | 3.56e7 | 4.19e7 | – | 1.88e7 | 1.85e7 | inactive |
| ccb | DRSC20501 | 3.64e7 | 4.04e7 | – | 2.09e7 | 1.85e7 | inactive |
| CG14131 | DRSC10135 | 1.95e7 | 2.57e7 | – | 1.05e7 | 1.34e7 | inactive |
| APC4 | DRSC18360 | 2.79e7 | 2.72e7 | – | 1.72e7 | 1.87e7 | active |
| spartin | DRSC12187 | 2.67e7 | 5.94e7 | – | 1.40e7 | 2.30e7 | inactive |
| or | DRSC04329 | 4.06e7 | 4.71e7 | – | 2.22e7 | 2.30e7 | inactive |
| beat-VI | DRSC14474 | 3.53e7 | 5.34e7 | – | 1.75e7 | 2.19e7 | inactive |
| beat-VI | DRSC14727 | 3.21e7 | 5.21e7 | – | 1.72e7 | 2.09e7 | inactive |
| mus101 | DRSC19388 | 4.62e7 | 2.79e7 | – | 2.16e7 | 1.52e7 | inactive |
| CG31823 | DRSC01887 | 4.92e7 | 4.03e7 | – | 2.05e7 | 1.72e7 | inactive |
| CG2617 | DRSC02712 | 5.07e7 | 5.95e7 | – | 2.51e7 | 2.52e7 | inactive |
| EMC4 | DRSC11638 | 2.25e7 | 3.53e7 | – | 1.12e7 | 1.32e7 | inactive |
| Socs44A | DRSC06828 | 4.09e7 | 4.41e7 | – | 1.93e7 | 1.82e7 | inactive |
| CG1638 | DRSC15132 | 2.11e7 | 3.21e7 | 1.8 | 1.16e7 | 1.30e7 | inactive |
| CG10934 | DRSC06017 | 3.10e7 | 2.83e7 | – | 1.46e7 | 1.45e7 | inactive |
| Taf6 | DRSC11299 | 2.42e7 | 1.63e7 | – | 1.95e7 | 9.13e6 | inactive |
| CG14634 | DRSC17944 | 4.81e7 | 4.90e7 | 2 | 2.38e7 | 2.11e7 | inactive |
| COX1 (retired record) | DRSC21275 | 3.56e7 | 4.13e7 | – | 1.95e7 | 1.87e7 | inactive |
| Phae2 | DRSC02555 | 3.78e7 | 2.59e7 | – | 1.65e7 | 1.26e7 | inactive |
| AdoR | DRSC16556 | 2.34e7 | 3.74e7 | – | 1.34e7 | 1.73e7 | inactive |

Only “calcium entry signal, replicate 1 (fluorescence units)”, for 7 of the entries above:
CG14329 [DRSC14808] = 2.85e7
snRNP-U1-70K [DRSC03612] = 3.24e7
snRNP-U1-70K [DRSC22071] = 2.16e7
Mos [DRSC07258] = 3.32e7
St2 [DRSC15142] = 4.68e7
St2 [DRSC22624] = 4.40e7
sll [DRSC16271] = 3.78e7

Additional reagents follow:
| Target gene | DRSC id | calcium entry signal, replicate 1 (fluorescence units) | calcium entry signal, replicate 2 (fluorescence units) | entry to resting ratio | resting calcium signal, replicate 1 (fluorescence units) | resting calcium signal, replicate 2 (fluorescence units) | call |
| --- | --- | --- | --- | --- | --- | --- | --- |
| Acox57D-d | DRSC04561 | 3.98e7 | – | – | 2.06e7 | – | inactive |
| Acp95EF + Spase22-23 | DRSC14102 | 4.74e7 | 6.83e7 | – | 2.35e7 | 2.76e7 | inactive |
| CG6938 | DRSC10752 | 3.83e7 | 4.73e7 | – | 1.85e7 | 2.04e7 | inactive |
| spag | DRSC04717 | 3.25e7 | 3.77e7 | – | 1.66e7 | 1.93e7 | inactive |
| CG14100 | DRSC10101 | 2.67e7 | 5.08e7 | – | 1.38e7 | 2.33e7 | inactive |
| ND-B14.7 | DRSC04544 | 4.29e7 | 5.86e7 | – | 2.23e7 | 2.28e7 | inactive |
| Mlh1 | DRSC07473 | 4.17e7 | 4.25e7 | – | 1.90e7 | 2.06e7 | inactive |
| CG4860 | DRSC15664 | 3.81e7 | 4.90e7 | – | 1.71e7 | 2.46e7 | inactive |
| CG4860 | DRSC21755 | 2.98e7 | 3.01e7 | – | 1.60e7 | 1.54e7 | inactive |
| CG4025 | DRSC18523 | 4.62e7 | 6.25e7 | 2 | 2.27e7 | 2.50e7 | inactive |
| CG8229 + CG33199 | DRSC05134 | 2.44e7 | 3.50e7 | – | 1.22e7 | 1.42e7 | inactive |
| Iswi | DRSC07446 | 2.93e7 | 3.11e7 | – | 1.70e7 | 1.66e7 | inactive |
| LysP | DRSC08676 | 2.79e7 | 2.70e7 | – | 1.37e7 | 1.22e7 | inactive |
| Uch | DRSC00797 | 3.64e7 | – | – | 1.90e7 | – | inactive |
| CG14204 | DRSC19559 | 3.34e7 | 4.43e7 | – | 2.01e7 | 2.09e7 | inactive |
| Ipk2 | DRSC00357 | 3.60e7 | 4.42e7 | – | 1.68e7 | 1.94e7 | inactive |
| epsilonCOP | DRSC02003 | 5.44e7 | – | – | 2.35e7 | – | inactive |
| CG9164 | DRSC19087 | 1.97e7 | 3.38e7 | – | 1.07e7 | 1.60e7 | inactive |
| CG9164 | DRSC20162 | 2.83e7 | 3.36e7 | – | 1.47e7 | 1.61e7 | inactive |
| dj | DRSC12625 | 4.54e7 | 4.11e7 | – | 2.14e7 | 2.04e7 | inactive |
| SCaMC | DRSC10293 | 4.53e7 | 4.25e7 | – | 3.19e7 | 1.79e7 | inactive |
| SCaMC | DRSC10415 | 3.15e7 | 3.14e7 | – | 1.61e7 | 1.41e7 | inactive |
| CG17985 | DRSC06702 | 4.21e7 | 4.01e7 | – | 1.89e7 | 1.58e7 | inactive |
| Polr2J | DRSC02995 | 4.50e7 | 3.85e7 | – | 2.07e7 | 1.61e7 | inactive |
| CG15036 | DRSC17968 | 3.40e7 | 3.98e7 | – | 1.69e7 | 2.06e7 | inactive |
